Values joined by “and” are separate entries in the source; they are usually repeats but may differ in a detail not shown here. Identical values can stand only once. For some of these results: Most of the hits are listed elsewhere, so they are rarer here than in the full data. Records with an inconclusive call do not appear. This is a selection; strong and weak results do not stand in their true shares. Active and inactive are the calls of the source. Unless noted, the call rests on the fitted dose curve.
Experiments:
[1] = Cell Viability - LYMP1-002 - Assay at 24 hr (AID 993; active means well fitted cell-killing curve with a large enough effect; further: on the % scale 0 is the no-effect control and ±100 the full control effect); conditions: LYMP1-002 lymphoblastoid cells viability; at 92.2 µM (top of the series)
How it was run: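 CellTiter-Glo luminescence (intracellular ATP) after 24 h compound exposure, 37 C, in LYMP1-002 human lymphoblastoid cells; decreased ATP taken as cytotoxicity. AC50 from standard Hill fit of concentration-response curves.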

The chains behind the UniProt entries cited, without tags or fusion partners. Where a name states a change or a piece, a line headed by the entry shows the natural chain unless it says otherwise.
UniProt P03372, whole entry, looked up: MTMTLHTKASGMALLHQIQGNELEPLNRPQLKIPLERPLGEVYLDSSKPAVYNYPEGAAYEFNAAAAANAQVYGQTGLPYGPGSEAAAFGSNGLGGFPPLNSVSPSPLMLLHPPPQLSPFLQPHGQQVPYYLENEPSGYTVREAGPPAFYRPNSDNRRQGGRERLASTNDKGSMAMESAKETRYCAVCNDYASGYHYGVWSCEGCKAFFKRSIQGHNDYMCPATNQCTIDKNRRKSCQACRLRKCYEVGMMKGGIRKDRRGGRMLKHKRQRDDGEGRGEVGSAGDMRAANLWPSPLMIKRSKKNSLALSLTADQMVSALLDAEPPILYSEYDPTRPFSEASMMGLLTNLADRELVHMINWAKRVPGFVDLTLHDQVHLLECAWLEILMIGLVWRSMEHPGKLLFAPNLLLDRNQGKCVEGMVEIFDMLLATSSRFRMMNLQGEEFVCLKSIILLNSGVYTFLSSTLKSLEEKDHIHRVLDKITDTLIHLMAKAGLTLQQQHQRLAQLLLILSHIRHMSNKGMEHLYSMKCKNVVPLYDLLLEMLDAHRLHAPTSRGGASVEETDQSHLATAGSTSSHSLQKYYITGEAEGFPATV
UniProt Q03181: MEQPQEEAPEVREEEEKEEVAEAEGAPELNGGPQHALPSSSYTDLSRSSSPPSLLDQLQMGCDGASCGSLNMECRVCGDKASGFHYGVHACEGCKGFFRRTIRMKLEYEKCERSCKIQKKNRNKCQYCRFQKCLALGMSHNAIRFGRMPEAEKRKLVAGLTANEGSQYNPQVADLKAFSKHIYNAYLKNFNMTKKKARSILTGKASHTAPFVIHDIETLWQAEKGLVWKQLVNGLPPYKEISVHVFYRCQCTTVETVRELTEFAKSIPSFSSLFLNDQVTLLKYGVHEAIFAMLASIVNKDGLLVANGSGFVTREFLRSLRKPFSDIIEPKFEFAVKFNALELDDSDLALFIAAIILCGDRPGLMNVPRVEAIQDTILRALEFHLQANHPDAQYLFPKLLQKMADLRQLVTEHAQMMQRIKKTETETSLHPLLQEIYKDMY
UniProt P19793: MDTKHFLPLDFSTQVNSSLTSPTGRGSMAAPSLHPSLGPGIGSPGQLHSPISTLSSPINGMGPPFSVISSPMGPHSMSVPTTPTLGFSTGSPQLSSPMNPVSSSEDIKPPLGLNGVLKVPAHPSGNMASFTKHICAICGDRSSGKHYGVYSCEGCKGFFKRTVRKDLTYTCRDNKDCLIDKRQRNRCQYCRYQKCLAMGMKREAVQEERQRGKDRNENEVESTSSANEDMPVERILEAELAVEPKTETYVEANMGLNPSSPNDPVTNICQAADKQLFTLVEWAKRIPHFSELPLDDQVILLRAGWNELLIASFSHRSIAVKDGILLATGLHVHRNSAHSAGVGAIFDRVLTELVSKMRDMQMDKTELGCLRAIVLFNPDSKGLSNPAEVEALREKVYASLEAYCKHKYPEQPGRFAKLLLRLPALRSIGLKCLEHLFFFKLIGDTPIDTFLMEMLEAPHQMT

[2] = Cell Viability - LYMP1-002 - Assay at 40 hr (AID 994; active means well fitted cell-killing curve with a large enough effect;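 further: 0% = DMSO only and full inhibition = 92 µM tetraoctylammonium bromide; nearly all actives have a fitted effect of over 60% in size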); conditions: LYMP1-002 lymphoblastoid cell viability; at 92.2 µM (top of the series)
How it was run: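 qHTS cytotoxicity; 2500 cells/well, 5 hr 37 C settle, compound 40 hr 37 C. CellTiter-Glo, 30 min RT, luminescence (ATP). Concentration-response, Hill fit → AC50. Pos. ctrl tetraoctylammonium bromide.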

[3] = qHTS Assay for Identification of Small Molecule Inducers of Hypoxia Response (AID 2120; active means well fitted curve in the direction sought with a large enough effect in the signal ratio, with a control signal flat, not every such curve was filed as active; the % refers to the signal ratio; further: 0% is about no effect); conditions: hypoxia response reporter cells, beta-lactamase ratio readout; at 104 µM (top of the series)
How it was run: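 Read-out: CCF4 FRET emission ratio 460nm/530nm (excitation 405nm), converted to %Activity, with AC50 fitted across a compound titration. ME-180 cells carried an HRE-driven beta-lactamase reporter; compound exposure 17 h, 37 degrees C.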

[4] = molecular target: Estrogen receptor (Homo sapiens) (UniProt P03372); test: qHTS assay for small molecule antagonists of estrogen receptor alpha signaling (AID 588513; active means well fitted curve in the direction sought with a large enough effect in the signal ratio, with a control signal flat, not every such curve was filed as active; the % refers to the signal ratio; further: on the % scale 0 is the no-effect control and ±100 the full control effect); conditions: ER-alpha-UAS-bla HEK293, beta-lactamase ratio, antagonist mode; at 76.9 µM (top of the series)
How it was run: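 Fluorescence from CCF4 substrate after 2 h at room temperature gave reporter activity; cells had been exposed to compound and 0.5nM 17-beta-estradiol for 18 h at 37 C. Hill-equation fitting yielded IC50 and maximal response.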

[5] = molecular target: Estrogen receptor (Homo sapiens) (UniProt P03372); test: qHTS assay for small molecule agonists of estrogen receptor alpha signaling (AID 588514); conditions: ER-alpha-UAS-bla HEK293, beta-lactamase ratio, 18 h, percent of full estradiol response, vehicle zero; at 76.8 µM (top of the series);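 further: 0% = vehicle only and 100% = reference agonist; nearly all actives have a fitted effect of over 70% in size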
How it was run: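 Read-out: CCF4 fluorescence from a beta-lactamase reporter in ER-alpha-UAS-bla HEK 293 cells after 18 hrs of compound exposure at 37 C. Normalized to 20 nM 17-beta-estradiol (100%) and DMSO (0%).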

[6] = molecular target: Glucocorticoid receptor (Homo sapiens) (UniProt P04150); test: qHTS assay for small molecule agonists of glucocorticoid receptor signaling (AID 588532; active means well fitted curve in the direction sought with a large enough effect in the signal ratio, with a control signal flat; the % refers to the signal ratio;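 further: 100% = dexamethasone at 0.1 µM and 0% = DMSO only wells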); conditions: HeLa MMTV-bla, beta-lactamase ratio, agonist, 18 h; stronger effect = higher value; percent of dexamethasone control, DMSO zero
How it was run: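 Stimulation of a glucocorticoid response element-driven beta-lactamase gene was measured in HeLa cells. Responses were scaled between DMSO basal and 0.1 uM dexamethasone, then fitted for half-maximal stimulation.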

[7] = molecular target: Glucocorticoid receptor (Homo sapiens) (UniProt P04150); test: qHTS assay for small molecule antagonists of glucocorticoid receptor signaling (AID 588533; active means well fitted inhibition curve with a large enough effect in the signal ratio, with a control signal flat, not every such curve was filed as active; the % refers to the signal ratio;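 further: cells stimulated with 2 nM dexamethasone as agonist; on the % scale 0 is the no-effect control and ±100 the full control effect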); conditions: HeLa MMTV-bla, GRE beta-lactamase ratio, antagonist mode, 18 h; at 76.8 µM (top of the series)
How it was run: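 Antagonist-mode qHTS: compound titrations added to GRE-bla HeLa cells, then dexamethasone 2 nM final; 18 h, 37 C. CCF4 FRET fluorescence normalized to dexamethasone and DMSO; IC50 from Hill fit.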

[8] = molecular target: Peroxisome proliferator-activated receptor delta (Homo sapiens) (UniProt Q03181); test: qHTS assay for small molecule agonists of peroxisome proliferator-activated receptor delta signaling (AID 588534); conditions: HEK293T PPARdelta-UAS-bla, beta-lactamase ratio, 18 h; at 76.7 µM (top of the series);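 further: 0% = DMSO basal wells and 100% = positive control agonist at 10 µM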
How it was run: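 Titration series tested in agonist mode on beta-lactamase reporter cells; 18 hrs at 37 C after a 5 hr pre-incubation. Readout: CCF4 fluorescence, 2 hrs RT. Hill equation gives EC50 and maximal response.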

[9] = qHTS assay for small molecule antagonists of peroxisome proliferator-activated receptor delta signaling (AID 588535; active means well fitted inhibition curve with a large enough effect in the signal ratio, with a control signal flat, not every such curve was filed as active; the % refers to the signal ratio;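 on max response: cells co-treated with a PPAR-delta agonist as stimulator during compound exposure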); conditions: HEK293T PPARd-UAS-bla, beta-lactamase FRET ratio, 18 h; 460 nm channel
How it was run: (§1)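 Compounds tested in titration on PPAR-delta-UAS-bla HEK293T cells grown in charcoal/dextran-stripped serum (2%); beta-lactamase activity read via CCF4 emission at 460 and 530 nm.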

[10] = molecular target: Peroxisome proliferator-activated receptor delta (Homo sapiens) (UniProt Q03181); test: as above; conditions: HEK293T PPARd-UAS-bla, beta-lactamase FRET ratio, 18 h; at 76.7 µM (top of the series)
How it was run: as §1

[11] = molecular target: Peroxisome proliferator-activated receptor gamma (Homo sapiens) (UniProt P37231); test: qHTS assay for small molecule agonists of peroxisome proliferator-activated receptor gamma signaling (AID 588536; active means well fitted curve in the direction sought with a large enough effect in the signal ratio, with a control signal flat, not every such curve was filed as active; the % refers to the signal ratio;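 further: 0% = DMSO basal wells and 100% = rosiglitazone at 2 µM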); conditions: HEK293 PPARg-UAS-bla, beta-lactamase ratio, 16 h, percent of rosiglitazone response, DMSO as zero; at 76.7 µM (top of the series)
How it was run: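 Compound treatment: 16 h, 37 C, HEK293 GeneBLAzer cells. Detection: CCF4, 2 h RT. Values: Hill-fit EC50, efficacy as % of 2 uM rosiglitazone.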

[12] = molecular target: Peroxisome proliferator-activated receptor gamma (Homo sapiens) (UniProt P37231); test: qHTS assay for small molecule antagonists of peroxisome proliferator-activated receptor gamma signaling (AID 588537; active means well fitted inhibition curve with a large enough effect in the signal ratio, with a control signal flat, not every such curve was filed as active; the % refers to the signal ratio;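 further: reporter cells co-stimulated with 50 nM rosiglitazone agonist during compound treatment; % of control where 0% means no effect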); conditions: HEK293 PPARg-UAS-bla, beta-lactamase ratio, antagonist mode; at 76.8 µM (top of the series)
How it was run: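 HEK293 cells, PPAR-gamma-UAS-bla, 3000/well. Pre-incubation 6-6.5 h, 37 C. Compound titration with rosiglitazone 50 nM final, 16 h. CCF4 dye, 2 h RT, dual-emission fluorescence.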

[13] = molecular target: Vitamin D3 receptor (Homo sapiens) (UniProt P11473); test: qHTS assay for small molecule antagonists of vitamin D receptor signaling (AID 588541); conditions: HEK293T VDR-UAS-bla, beta-lactamase ratio, antagonist mode; at 76.7 µM (top of the series);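 further: receptor activated by calcitriol during compound treatment; on the % scale 0 is the no-effect control and ±100 the full control effect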
How it was run: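 VDR-UAS-bla HEK293T cells (2000/well, 2% charcoal-stripped FBS) were treated with titrated compounds plus 1-alpha,25-dihydroxyvitamin D3 (50 nM or 3 nM final) for 16 h at 37 C. CCF4 beta-lactamase fluorescence was read; Hill fits gave IC50.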

[14] = molecular target: Vitamin D3 receptor (Homo sapiens) (UniProt P11473); test: qHTS assay for small molecule agonists of vitamin D receptor signaling (AID 588543); conditions: HEK293T VDR-UAS-bla, beta-lactamase ratio, 16 h; at 76.8 µM (top of the series);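 further: 0% = DMSO basal and 100% = reference agonist control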
How it was run: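 Reporter cells (HEK293T, VDR-UAS-bla) were seeded in medium with 2% charcoal-stripped serum and incubated 5 h, then compounds in concentration series were added for 16 h at 37 °C. Stimulation was scaled between DMSO basal and 50 nM 1α,25-dihydroxyvitamin D3.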

[15] = qHTS assay for small molecule agonists of retinoid X receptor alpha signaling (AID 588544); conditions: HEK293T RXRa-UAS-bla, beta-lactamase reporter, 18 h; 530 nm emission;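 on activation: 0% = DMSO basal wells and 100% = reference agonist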
[16] = molecular target: Retinoic acid receptor RXR-alpha (Homo sapiens) (UniProt P19793); test: as above; conditions: HEK293T RXRa-UAS-bla, beta-lactamase reporter, 18 h; at 76.7 µM (top of the series)

Nc1ccc(N)c([N+](=O)[O-])c1
inactive: activity change, negative = cytotoxicity [1] -3.9% | viability change, negative = cytotoxic [2] -14.4% | activation [3] 0.685% | activity, negative = inhibition [4] 15.1% | activation [5] -2.32% and 3.42% | activation [6] 2.63% and 1.7% | activity change, negative = inhibition [7] 28.4% | activation [8] -1.21% and -11.4% | activity change, negative = inhibition [10] -1.02% and 1.7% | activation [11] 0.636% and 8% | activity, negative = inhibition [12] -3.62% | activity change, negative = inhibition [13] 7.87% and -0.542% | activation [14] 2.07% and -3.81% | activation [16] -5.43%
-26.6% and 23.6%: max response [9]
2.09%: max response [15]

Reference: PubChem BioAssay (NCATS)
